According to PMC6890249:
These are yes or no findings as the source states them, for the method shown. In cells and extracts the contact can be indirect. A yes stands for co-enrichment or nearness to the bait. Other partners may have been found.

Sequences of proteins named here, by UniProt entry; tags and fusion partners are left off.
UniProt Q7KZI7: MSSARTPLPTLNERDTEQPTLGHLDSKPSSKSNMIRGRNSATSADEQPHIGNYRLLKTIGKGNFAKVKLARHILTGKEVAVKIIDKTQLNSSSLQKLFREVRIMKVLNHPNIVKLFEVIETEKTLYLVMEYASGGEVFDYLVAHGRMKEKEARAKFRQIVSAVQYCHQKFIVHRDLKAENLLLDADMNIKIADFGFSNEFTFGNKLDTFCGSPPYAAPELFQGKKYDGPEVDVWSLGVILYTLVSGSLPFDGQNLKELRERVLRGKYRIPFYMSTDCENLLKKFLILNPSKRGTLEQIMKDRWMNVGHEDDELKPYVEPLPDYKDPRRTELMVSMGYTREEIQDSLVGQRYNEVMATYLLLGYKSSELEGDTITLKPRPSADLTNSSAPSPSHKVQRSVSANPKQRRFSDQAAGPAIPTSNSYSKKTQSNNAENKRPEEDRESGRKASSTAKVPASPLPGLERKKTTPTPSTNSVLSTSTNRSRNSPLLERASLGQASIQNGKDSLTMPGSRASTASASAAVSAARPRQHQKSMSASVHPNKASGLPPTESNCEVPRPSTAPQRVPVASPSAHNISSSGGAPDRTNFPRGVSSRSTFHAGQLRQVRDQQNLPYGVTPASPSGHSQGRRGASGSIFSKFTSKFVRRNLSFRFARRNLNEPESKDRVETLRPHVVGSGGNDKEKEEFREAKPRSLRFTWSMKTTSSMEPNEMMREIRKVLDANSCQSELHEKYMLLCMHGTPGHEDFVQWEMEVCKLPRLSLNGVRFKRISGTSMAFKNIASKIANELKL
UniProt Q7Z460: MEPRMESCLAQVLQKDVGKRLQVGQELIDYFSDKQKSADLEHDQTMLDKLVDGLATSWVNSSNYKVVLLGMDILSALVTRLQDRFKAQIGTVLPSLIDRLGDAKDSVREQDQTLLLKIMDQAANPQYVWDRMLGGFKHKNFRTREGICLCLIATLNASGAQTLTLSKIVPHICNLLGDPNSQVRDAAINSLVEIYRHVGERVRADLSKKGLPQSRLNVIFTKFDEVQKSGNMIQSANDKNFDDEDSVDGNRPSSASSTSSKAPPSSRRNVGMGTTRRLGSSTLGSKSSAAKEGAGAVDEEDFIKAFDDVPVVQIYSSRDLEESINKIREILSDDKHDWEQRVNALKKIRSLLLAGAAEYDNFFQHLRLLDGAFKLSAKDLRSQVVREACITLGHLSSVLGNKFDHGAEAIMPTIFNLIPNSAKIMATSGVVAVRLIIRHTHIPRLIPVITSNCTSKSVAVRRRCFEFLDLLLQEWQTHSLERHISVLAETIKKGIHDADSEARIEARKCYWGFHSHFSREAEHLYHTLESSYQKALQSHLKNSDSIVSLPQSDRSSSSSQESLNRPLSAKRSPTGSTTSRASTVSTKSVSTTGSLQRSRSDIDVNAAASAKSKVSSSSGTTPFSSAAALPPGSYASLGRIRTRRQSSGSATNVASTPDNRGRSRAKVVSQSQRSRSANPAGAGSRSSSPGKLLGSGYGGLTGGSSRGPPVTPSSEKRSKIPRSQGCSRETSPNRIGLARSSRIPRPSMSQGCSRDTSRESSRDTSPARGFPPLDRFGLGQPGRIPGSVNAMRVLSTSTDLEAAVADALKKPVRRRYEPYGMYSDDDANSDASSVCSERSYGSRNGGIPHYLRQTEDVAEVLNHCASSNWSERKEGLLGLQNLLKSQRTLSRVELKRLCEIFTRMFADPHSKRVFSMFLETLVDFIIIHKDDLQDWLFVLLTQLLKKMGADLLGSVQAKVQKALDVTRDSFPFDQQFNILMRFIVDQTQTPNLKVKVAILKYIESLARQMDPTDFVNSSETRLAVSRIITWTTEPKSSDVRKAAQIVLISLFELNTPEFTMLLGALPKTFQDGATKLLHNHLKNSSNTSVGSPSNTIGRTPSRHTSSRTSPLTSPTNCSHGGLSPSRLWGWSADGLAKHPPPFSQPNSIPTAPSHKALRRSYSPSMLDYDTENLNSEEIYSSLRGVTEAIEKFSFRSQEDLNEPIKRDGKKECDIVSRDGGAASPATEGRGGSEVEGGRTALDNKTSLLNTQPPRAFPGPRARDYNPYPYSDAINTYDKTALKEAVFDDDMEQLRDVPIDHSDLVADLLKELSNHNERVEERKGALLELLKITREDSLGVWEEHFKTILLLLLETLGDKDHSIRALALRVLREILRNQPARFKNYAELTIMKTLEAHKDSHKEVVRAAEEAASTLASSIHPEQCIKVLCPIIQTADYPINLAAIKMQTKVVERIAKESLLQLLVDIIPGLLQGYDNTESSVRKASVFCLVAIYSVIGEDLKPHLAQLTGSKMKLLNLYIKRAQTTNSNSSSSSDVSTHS

B1: CLIP-associating protein 2 (CLASP2), endogenous (protein, UniProt O75122 1-1294)
chain: MAMGDDKSFDDEESVDGNRPSSAASAFKVPAPKTSGNPANSARKPGSAGGPKVGGASKEGGAGAVDEDDFIKAFTDVPSIQIYSSRELEETLNKIREILSDDKHDWDQRANALKKIRSLLVAGAAQYDCFFQHLRLLDGALKLSAKDLRSQVVREACITVAHLSTVLGNKFDHGAEAIVPTLFNLVPNSAKVMATSGCAAIRFIIRHTHVPRLIPLITSNCTSKSVPVRRRSFEFLDLLLQEWQTHSLERHAAVLVETIKKGIHDADAEARVEARKTYMGLRNHFPGEAETLYNSLEPSYQKSLQTYLKSSGSVASLPQSDRSSSSSQESLNRPFSSKWSTANPSTVAGRVSAGSSKASSLPGSLQRSRSDIDVNAAAGAKAHHAAGQSVRSGRLGAGALNAGSYASLEDTSDKLDGTASEDGRVRAKLSAPLAGMGNAKADSRGRSRTKMVSQSQPGSRSGSPGRVLTTTALSTVSSGVQRVLVNSASAQKRSKIPRSQGCSREASPSRLSVARSSRIPRPSVSQGCSREASRESSRDTSPVRSFQPLASRHHSRSTGALYAPEVYGASGPGYGISQSSRLSSSVSAMRVLNTGSDVEEAVADALKKPARRRYESYGMHSDDDANSDASSACSERSYSSRNGSIPTYMRQTEDVAEVLNRCASSNWSERKEGLLGLQNLLKNQRTLSRVELKRLCEIFTRMFADPHGKRVFSMFLETLVDFIQVHKDDLQDWLFVLLTQLLKKMGADLLGSVQAKVQKALDVTRESFPNDLQFNILMRFTVDQTQTPSLKVKVAILKYIETLAKQMDPGDFINSSETRLAVSRVITWTTEPKSSDVRKAAQSVLISLFELNTPEFTMLLGALPKTFQDGATKLLHNHLRNTGNGTQSSMGSPLTRPTPRSPANWSSPLTSPTNTSQNTLSPSAFDYDTENMNSEDIYSSLRGVTEAIQNFSFRSQEDMNEPLKRDSKKDDGDSMCGGPGMSDPRAGGDATDSSQTALDNKASLLHSMPTHSSPRSRDYNPYNYSDSISPFNKSALKEAMFDDDADQFPDDLSLDHSDLVAELLKELSNHNERVEERKIALYELMKLTQEESFSVWDEHFKTILLLLLETLGDKEPTIRALALKVLREILRHQPARFKNYAELTVMKTLEAHKDPHKEVVRSAEEAASVLATSISPEQCIKVLCPIIQTADYPINLAAIKMQTKVIERVSKETLNLLLPEIMPGLIQGYDNSESSVRKACVFCLVAVHAVIGDELKPHLSQLTGSKMKLLNLYIKRAQTGSGGADPTTDVSGQS

Target: FLAG-tagged MARK2 (hMARK2 TV4, MAP/microtubule affinity-regulating kinase 2, 1–788) (human) (UniProt Q7KZI7)
Test: affinity purification with mass spectrometry; N-terminally FLAG-tagged MARK2 TV4 or SIK2 AA overexpressed in HEK293T; cells treated with 1 μM Carfilzomib and 10 μM Forskolin or 10 μM Doxorubicin; anti-FLAG M2 magnetic beads, 3xFLAG peptide elution; MudPIT on LTQ Orbitrap Velos; endogenous partners

Molecule | binding
CLIP-associating protein 1 (CLASP1), endogenous (from UniProt Q7Z460 1-1538) | binds
B1 | binds
